# Article PMC2442905 (British Journal of Pharmacology, 2008)
# Test system: anaesthetized guinea-pigs (QTc interval of the ECG)
# Assay: Anaesthetized guinea-pig QT
# Format: in vivo
# Conditions: highest dose level, i.v. infusion over 10 min
compound,measurement,value
CCCCc1oc2ccccc2c1C(=O)c1cc(I)c(OCCN(CC)CC)c(I)c1 [Amiodarone],mean baseline-corrected QTc,6.9%
